{
  "sequences": {"note": "Amino acid sequences for entries named in this document (tags omitted).", "UniProt P62259": "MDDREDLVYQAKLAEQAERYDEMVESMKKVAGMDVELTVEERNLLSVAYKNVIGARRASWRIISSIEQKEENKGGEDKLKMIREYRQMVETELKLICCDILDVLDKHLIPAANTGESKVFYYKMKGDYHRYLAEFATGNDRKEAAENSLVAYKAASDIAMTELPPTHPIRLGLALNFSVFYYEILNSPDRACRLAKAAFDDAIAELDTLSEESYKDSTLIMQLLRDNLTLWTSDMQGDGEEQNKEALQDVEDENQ"},
  "source": "paper doi:10.1101/2020.05.26.105015",
  "target": "HAHA-14-3-3ε (UniProt P62259)",
  "test": "co-IP",
  "note": "These are yes or no findings as the source states them, for the method shown. Binding seen in cells or lysates may run through a third protein. Some results given as binding are weak or reduced against the parent protein; the word gives no strength. Tags and fused reporters may be left off the sequences shown.",
  "data": [
    {"binder": "Activity-dependent neuroprotective protein (Adnp), 6xHis-tagged (protein, UniProt Q9Z103 1-1108) MFQLPVNNLGSLRKARKTVKKILSDIGLEYCKEHIEDFKQFEPNDFYLKNTTWEDVGLWDPSLTKNQDYRTKPFCCSACPFSSKFFSAYKSHFRNVHSEDFENRILLNCPYCTFNADKKTLETHIKIFHAPNSSAPSSSLSTFKDKNKNDGLKPKQADNVEQAVYYCKKCTYRDPLYEIVRKHIYREHFQHVAAPYIAKAGEKSLNGAVSLGTNAREECNIHCKRCLFMPKSYEALVQHVIEDHERIGYQVTAMIGHTNVVVPRAKPLMLIAPKPQDKKGMGLPPRISSLASGNVRSLPSQQMVNRLSIPKPNLNSTGVNMMSNVHLQQNNYGVKSVGQSYGVGQSVRLGLGGNAPVSIPQQSQSVKQLLPSGNGRSFGLGAEQRPPAAARYSLQTANTSLPPGQVKSPSVSQSQASRVLGQSSSKPPPAATGPPPSNHCATQKWKICTICNELFPENVYSVHFEKEHKAEKVPAVANYIMKIHNFTSKCLYCNRYLPTDTLLNHMLIHGLSCPYCRSTFNDVEKMAAHMRMVHIDEEMGPKTDSTLSFDLTLQQGSHTNIHLLVTTYNLRDAPAESVAYHAQNNAPVPPKPQPKVQEKADVPVKSSPQAAVPYKKDVGKTLCPLCFSILKGPISDALAHHLRERHQVIQTVHPVEKKLTYKCIHCLGVYTSNMTASTITLHLVHCRGVGKTQNGQDKTNAPSRLNQSPGLAPVKRTYEQMEFPLLKKRKLEEDADSPSCFEEKPEEPVVLALDPKGHEDDSYEARKSFLTKYFNKQPYPTRREIEKLAASLWLWKSDIASHFSNKRKKCVRDCEKYKPGVLLGFNMKELNKVKHEMDFDAEWLFENHDEKDSRVNASKTVDKKHNLGKEDDSFSDSFEHLEEESNGSGSPFDPVFEVEPKIPSDNLEEPVPKVIPEGALESEKLDQKEEEEEEEEEDGSKYETIHLTEEPAKLMHDASDSEVDQDDVVEWKDGASPSESGPGSQQISDFEDNTCEMKPGTWSDESSQSEDARSSKPAAKKKATVQDDTEQLKWKNSSYGKVEGFWSKDQSQWENASENAERLPNPQIEWQNSTIDSEDGEQFDSMTDGVADPMHGSLTGVKLSSQQA", "values": [
      {"measurement": "binding", "value": "binds"}
    ]}
  ]
}
